Our source for the binding values is publication PMC3836728.

Amino acid sequences for entries named in this document (tags omitted). Residues count along the entry.
UniProt Q9QR71, residues 240-300: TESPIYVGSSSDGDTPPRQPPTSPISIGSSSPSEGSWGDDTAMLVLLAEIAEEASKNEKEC
UniProt Q13263: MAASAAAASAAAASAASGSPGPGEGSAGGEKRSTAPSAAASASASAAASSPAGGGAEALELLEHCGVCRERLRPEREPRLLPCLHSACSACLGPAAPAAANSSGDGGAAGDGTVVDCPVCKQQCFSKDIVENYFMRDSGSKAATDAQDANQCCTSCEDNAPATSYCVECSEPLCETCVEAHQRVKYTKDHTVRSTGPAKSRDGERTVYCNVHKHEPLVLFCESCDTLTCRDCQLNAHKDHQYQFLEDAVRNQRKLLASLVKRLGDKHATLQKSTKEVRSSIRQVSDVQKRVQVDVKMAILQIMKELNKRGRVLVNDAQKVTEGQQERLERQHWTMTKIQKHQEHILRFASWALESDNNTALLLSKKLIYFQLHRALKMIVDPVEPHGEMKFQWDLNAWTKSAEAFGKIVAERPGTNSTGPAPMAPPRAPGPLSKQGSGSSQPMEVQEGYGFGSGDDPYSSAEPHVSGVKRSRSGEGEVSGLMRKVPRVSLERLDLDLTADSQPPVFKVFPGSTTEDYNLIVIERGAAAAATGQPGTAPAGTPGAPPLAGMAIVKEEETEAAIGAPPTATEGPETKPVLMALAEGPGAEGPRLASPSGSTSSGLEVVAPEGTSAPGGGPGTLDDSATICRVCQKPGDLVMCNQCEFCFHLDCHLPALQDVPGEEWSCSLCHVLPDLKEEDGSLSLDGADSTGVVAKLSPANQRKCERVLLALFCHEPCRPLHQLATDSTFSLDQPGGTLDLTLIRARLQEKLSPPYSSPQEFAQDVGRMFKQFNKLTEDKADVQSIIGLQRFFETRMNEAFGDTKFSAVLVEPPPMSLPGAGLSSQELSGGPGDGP
UniProt Q92793: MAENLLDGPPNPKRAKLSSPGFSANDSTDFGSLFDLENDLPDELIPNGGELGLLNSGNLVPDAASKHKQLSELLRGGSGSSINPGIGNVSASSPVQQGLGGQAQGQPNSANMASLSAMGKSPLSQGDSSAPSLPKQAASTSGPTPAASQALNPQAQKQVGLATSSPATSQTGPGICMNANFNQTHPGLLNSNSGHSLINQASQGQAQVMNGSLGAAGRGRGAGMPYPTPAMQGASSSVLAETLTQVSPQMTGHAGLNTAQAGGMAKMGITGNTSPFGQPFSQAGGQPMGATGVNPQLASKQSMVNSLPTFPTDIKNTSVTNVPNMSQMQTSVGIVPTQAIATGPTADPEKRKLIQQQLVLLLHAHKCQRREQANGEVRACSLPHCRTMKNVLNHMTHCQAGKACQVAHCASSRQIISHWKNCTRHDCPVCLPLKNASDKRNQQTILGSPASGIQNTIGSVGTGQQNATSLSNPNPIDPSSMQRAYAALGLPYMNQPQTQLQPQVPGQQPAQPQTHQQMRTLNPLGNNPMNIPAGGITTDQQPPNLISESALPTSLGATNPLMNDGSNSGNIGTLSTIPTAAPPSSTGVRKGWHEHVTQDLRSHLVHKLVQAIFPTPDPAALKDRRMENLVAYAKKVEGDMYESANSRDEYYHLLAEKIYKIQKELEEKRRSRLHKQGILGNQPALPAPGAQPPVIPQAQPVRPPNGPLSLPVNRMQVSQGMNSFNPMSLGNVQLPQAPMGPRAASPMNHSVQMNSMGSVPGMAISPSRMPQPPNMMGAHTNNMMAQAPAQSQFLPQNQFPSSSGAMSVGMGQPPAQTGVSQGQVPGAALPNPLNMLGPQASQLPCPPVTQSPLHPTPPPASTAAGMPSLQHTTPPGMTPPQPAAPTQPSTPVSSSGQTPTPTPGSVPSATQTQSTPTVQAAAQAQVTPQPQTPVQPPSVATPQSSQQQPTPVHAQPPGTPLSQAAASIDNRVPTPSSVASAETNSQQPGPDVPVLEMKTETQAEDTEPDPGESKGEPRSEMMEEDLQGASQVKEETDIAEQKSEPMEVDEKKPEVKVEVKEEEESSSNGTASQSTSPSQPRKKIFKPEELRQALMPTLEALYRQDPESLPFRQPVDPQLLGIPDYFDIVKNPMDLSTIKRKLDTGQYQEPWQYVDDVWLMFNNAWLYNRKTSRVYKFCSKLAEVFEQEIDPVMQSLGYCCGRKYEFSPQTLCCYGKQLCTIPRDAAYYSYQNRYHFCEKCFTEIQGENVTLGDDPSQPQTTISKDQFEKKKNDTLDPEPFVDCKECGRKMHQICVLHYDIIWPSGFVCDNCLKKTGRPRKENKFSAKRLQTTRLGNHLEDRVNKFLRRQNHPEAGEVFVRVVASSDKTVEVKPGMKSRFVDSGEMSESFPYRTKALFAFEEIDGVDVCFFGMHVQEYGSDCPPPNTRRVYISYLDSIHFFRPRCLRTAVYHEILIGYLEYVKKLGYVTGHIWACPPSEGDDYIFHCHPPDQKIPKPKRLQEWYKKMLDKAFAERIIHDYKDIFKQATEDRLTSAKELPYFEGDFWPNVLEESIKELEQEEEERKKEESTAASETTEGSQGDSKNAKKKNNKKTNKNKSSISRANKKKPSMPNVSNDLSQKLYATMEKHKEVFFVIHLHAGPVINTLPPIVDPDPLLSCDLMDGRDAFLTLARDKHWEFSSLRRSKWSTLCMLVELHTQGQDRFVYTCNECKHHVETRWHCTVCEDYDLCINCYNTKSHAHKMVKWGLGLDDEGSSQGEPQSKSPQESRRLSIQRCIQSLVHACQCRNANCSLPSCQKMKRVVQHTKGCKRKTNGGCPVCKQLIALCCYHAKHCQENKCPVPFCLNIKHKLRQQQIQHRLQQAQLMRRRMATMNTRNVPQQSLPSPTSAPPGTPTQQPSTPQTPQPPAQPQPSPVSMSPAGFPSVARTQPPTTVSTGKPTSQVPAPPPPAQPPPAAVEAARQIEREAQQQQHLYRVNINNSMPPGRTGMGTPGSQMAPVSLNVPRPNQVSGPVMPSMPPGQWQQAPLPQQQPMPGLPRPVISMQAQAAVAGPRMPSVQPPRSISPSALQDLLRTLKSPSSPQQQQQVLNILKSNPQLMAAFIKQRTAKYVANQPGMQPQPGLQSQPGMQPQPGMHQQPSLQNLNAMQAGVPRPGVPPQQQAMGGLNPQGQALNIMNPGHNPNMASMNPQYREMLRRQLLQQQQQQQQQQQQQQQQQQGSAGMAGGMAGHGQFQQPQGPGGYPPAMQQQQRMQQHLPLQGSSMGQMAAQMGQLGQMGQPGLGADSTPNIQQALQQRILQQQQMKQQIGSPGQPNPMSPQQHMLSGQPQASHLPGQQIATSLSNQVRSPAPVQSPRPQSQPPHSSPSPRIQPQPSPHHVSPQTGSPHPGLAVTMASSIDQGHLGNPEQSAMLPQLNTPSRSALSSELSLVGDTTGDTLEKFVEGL
UniProt Q09472: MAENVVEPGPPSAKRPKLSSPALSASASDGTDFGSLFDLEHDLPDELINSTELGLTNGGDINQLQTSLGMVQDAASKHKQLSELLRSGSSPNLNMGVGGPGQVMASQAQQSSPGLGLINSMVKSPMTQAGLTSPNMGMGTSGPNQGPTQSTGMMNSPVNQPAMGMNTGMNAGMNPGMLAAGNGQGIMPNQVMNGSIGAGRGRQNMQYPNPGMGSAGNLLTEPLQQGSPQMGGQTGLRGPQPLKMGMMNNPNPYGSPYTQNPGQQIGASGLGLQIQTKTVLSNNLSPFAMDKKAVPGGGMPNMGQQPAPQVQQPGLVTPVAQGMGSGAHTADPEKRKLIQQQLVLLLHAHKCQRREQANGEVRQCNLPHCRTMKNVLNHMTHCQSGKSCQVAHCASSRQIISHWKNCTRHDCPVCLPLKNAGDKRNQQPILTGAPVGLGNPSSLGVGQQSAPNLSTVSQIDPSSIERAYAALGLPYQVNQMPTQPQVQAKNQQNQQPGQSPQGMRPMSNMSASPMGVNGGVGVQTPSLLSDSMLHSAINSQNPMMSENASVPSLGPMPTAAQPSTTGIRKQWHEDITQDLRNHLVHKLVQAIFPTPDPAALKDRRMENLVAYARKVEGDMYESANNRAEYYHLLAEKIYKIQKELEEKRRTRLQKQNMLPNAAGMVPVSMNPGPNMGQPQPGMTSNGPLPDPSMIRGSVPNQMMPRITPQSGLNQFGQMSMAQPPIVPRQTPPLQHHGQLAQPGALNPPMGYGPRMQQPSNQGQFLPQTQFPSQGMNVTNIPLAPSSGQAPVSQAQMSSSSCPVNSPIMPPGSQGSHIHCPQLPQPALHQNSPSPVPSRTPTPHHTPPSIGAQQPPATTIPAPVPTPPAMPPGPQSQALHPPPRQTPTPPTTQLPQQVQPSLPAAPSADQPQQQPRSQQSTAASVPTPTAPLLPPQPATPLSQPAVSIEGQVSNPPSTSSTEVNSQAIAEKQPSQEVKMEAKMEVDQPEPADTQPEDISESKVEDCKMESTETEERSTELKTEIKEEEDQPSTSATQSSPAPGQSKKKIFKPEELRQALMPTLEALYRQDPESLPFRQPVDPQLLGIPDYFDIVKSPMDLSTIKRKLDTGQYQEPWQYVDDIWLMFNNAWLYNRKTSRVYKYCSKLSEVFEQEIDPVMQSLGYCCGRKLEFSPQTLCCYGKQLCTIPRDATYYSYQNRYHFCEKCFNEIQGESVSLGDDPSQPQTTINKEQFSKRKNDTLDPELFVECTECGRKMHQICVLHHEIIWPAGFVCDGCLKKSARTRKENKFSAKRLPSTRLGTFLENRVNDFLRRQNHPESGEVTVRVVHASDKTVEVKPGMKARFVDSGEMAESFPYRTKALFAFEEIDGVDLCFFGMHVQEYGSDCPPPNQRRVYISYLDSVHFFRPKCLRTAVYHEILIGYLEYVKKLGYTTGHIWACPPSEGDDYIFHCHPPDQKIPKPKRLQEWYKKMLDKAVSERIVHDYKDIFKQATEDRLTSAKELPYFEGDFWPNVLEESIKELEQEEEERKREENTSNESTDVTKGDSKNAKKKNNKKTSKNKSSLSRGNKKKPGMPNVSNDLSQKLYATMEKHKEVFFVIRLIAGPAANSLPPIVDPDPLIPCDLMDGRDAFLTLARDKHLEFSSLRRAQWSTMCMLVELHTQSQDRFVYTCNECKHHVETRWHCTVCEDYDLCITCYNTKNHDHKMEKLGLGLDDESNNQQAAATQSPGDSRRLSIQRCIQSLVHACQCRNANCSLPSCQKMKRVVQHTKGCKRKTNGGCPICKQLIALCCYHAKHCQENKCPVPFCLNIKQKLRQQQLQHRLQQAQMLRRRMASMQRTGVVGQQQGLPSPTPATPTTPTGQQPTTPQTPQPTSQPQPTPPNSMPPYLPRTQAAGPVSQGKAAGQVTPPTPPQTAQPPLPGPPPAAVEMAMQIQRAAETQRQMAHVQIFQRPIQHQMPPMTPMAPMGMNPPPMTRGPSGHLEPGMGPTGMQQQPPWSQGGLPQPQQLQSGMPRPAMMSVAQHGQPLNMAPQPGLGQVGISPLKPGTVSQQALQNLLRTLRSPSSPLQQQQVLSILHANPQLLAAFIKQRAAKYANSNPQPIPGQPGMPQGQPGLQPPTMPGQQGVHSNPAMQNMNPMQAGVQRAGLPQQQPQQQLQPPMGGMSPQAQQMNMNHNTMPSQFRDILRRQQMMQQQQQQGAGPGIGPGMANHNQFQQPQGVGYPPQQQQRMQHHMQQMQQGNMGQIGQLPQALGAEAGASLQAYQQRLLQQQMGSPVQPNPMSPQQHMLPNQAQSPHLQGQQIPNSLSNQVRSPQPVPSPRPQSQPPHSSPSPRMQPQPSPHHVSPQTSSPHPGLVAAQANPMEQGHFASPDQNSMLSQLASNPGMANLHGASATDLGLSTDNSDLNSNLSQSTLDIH

These are yes or no findings as the source states them, for the method shown. In cells and extracts the contact can be indirect. A yes stands for co-enrichment or nearness to the bait. Other partners may have been found.

For the assay, the target named is GST-SIM(240–300) (Kaposi's sarcoma-associated herpesvirus (KSHV)) (UniProt Q9QR71). Briefly: affinity purification with mass spectrometry; GST-SIM(240–300) on beads with nuclear extracts from 293 cells expressing exogenous SUMO-2; bands b1-b4 cut from the gel and identified by mass spectrometry; only the target purified.
On to “KAP1 (also known as TIF1β or TRIM28) (from UniProt Q13263 1-835)”, for which the binding result is listed as “binds”. For the substance DNA-PKc (from UniProt P78527 1-4128), the binding entry was “binds”. Then “CREB-binding protein (CBP) (from UniProt Q92793 1-2442)”, with “binds”. Consider p300 (from UniProt Q09472 1-2414), for which the binding entry is on record as “binds”.
